# In PubChem BioAssay AID1347423 (Functional Genomics Laboratory (NCATS/FGL), 2020):
# In all, about 52,000 sequences went through this assay and about 210 (0.4%) were called active.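 Rule for the calls: active = gene whose silencing raises cell survival under the drug, median off-target-corrected z-score across its silencing RNAs 2 or more; inactive = the rest.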 The list shows a part of the results.
# Assay: Resistance to Poly (ADP-Ribose) Polymerase inhibitor: Gene Identification via Genome-wide siRNA Screen
# Details: mouse BRCA2 R2336H ES cells, olaparib, CellTiter-Glo viability; active compounds read high
# Summary of the method: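 Mouse BRCA2 R2336H ES cells were reverse-transfected with siRNA (20 nM final), treated at 48 h with 500 nM olaparib, and read by CellTiter-Glo after 72 h. Scores: MAD-based z per siRNA, median per gene, seed off-target correction.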
row,Sequence,z-score
1,CCGUUCCAUCAUUAAGACCTT against Stk22b,inactive: 0.159
2,GGUAUUUGGAGUACCCUUUTT against 6530401L14Rik,inactive: 0.892
3,GCCAACCUGAAACCAUCUATT against Ptprg,inactive: 0.75
4,GGGACUUUGAGUCUAACAATT against Pnliprp1,inactive: -2.28
5,GCAAUGGAUACAGGACCUUTT against Nupr1,inactive: -0.692
6,GCCAACGAAAAAUGACCUCTT against Wnt2,inactive: -0.201
7,GGACUCCAAGAAUUUAACATT against Fbxo22,inactive: -0.397
8,GGAUGAACUUAGCUACCCATT against Slc25a20,inactive: 1.89
9,GGUUCAAAUGUUGCAUAGUTT against Klrc2,inactive: -0.81
10,GGUGAAACCUGUCAUUCACTT against Dcdc2,inactive: 0.442
11,GGUGAUUGCAUACCUAUGATT against Irs4,inactive: -1.64
12,GGAUCAAUGCCCGACUACATT against Phf14,inactive: -2.73
13,CUUUAUGGGUCGUGGAGGATT against Hnrpa3,inactive: 0.154
14,GCCUGCGUCUUGUUCUGAGTT against Agtr1,inactive: -1.14
15,GGACACUCUUCCAAAUACATT against BC033606,inactive: -0.317
16,GGAAGUGUUUCACGUGGAATT against Uhrf1,inactive: 1.73
17,GGACUAGUCCUAAGAAGAGTT against 1700012H05Rik,inactive: -1.71
18,GGAUAUACCCUGUUCUAGGTT against 4930572J05Rik,inactive: 0.139
19,GGCUGGUAUUACAUCUAUCTT against Myohd1,inactive: 0.58
20,GAAUGCUCUGAGACUUUUATT against Igsf7,inactive: 0.732
21,CCUUUAAUUUCACUGUUACTT against Gabarapl2,inactive: 0.915
22,GGCCUGACGCAUUAGCAUUTT against 1700039D13Rik,inactive: 1.45
23,CCAGACUCAUAAUGUUAAUTT against 9430077A04Rik,inactive: -1.1
24,CCUGCCUGACACAUUGUGATT against Ntan1,inactive: -0.354
25,GGUUGUAAGUGUCUUAAAGTT against Pdcd6ip,inactive: 0.356
26,CGAUCAAGGAUCUUAAGAUTT against Aox4,inactive: -0.187

# Some of the entries above, set out differently:
row | Sequence | z-score
11 | GGUGAUUGCAUACCUAUGATT against Irs4 | inactive: -1.64
12 | GGAUCAAUGCCCGACUACATT against Phf14 | inactive: -2.73
13 | CUUUAUGGGUCGUGGAGGATT against Hnrpa3 | inactive: 0.154

# (further entries)

row,Sequence,z-score
1,GGCUGCAUGUGCUCUGUUATT against 9830137M10Rik,inactive: -0.327
2,GGAAACUGGCAGUUUGGGUTT against Slc35a1,inactive: 1.23
3,GCGUGUGUGCCUCUACUUGTT against 9130210N20Rik,inactive: 0.21
4,CGGCCGUAUGAAGAAGAUATT against Rpel1,inactive: 0.677
5,GGCUAGCCAUCCAAAAAGATT against BC027072,inactive: -0.561
6,GGUGGUAAUUGGUGUGGCATT against C80638,inactive: 1.39
7,GCCGUUUGUACCUUGUCAGTT against 4933430I17Rik,inactive: -0.347
8,CCAAUAACAGGAUUGAGAATT against Tnfrsf8,inactive: -0.969
9,GCUCAUUAACGAGAAAGUGTT against 2610528J18Rik,inactive: 1.14
10,GGGAAAAAGAAAAGGAAAATT against Dhx15,inactive: -0.426
11,GGAGAUAAAGCUGACACUGTT against 5830416A07Rik,inactive: 1.17
12,GGAGAACUUCCUAUACUAUTT against Apobec2,inactive: 0.216
13,CCCACCUAUGGGCUAUUAUTT against 5730403B10Rik,inactive: -3.2
14,GCCAUGACCGUUCGUGAGUTT against Jmjd2a,inactive: 0.149
15,GGAUACUCACUGCACAAGGTT against Slc9a8,inactive: -0.568
16,GCAUCACCAAGACUCGGAATT against B230369L08Rik,inactive: 0.669
17,GGAGCUGUUUCAGGUAUCUTT against Tcam1,inactive: -0.211
18,GGAGCGAAUCUUAAAGAACTT against Gspt1,inactive: -2.24
19,GGCACAUACGCUAUGAAGCTT against Mrpplf4,inactive: -0.535
20,GGAGGCUCUACUUUUGUAGTT against Olfr611,inactive: 1.34
21,GCCUACAACCGCUUCUUGGTT against AA409316,inactive: 0.355
22,CCUAUUCAUCAUAACUCAUTT against Tdo2,inactive: -1.42
23,GCUUGAUCCGAUUAGCAGATT against BC062185,inactive: -1.61
24,GGUCGAAAUGAUCUCCAACTT against Poli,inactive: -2.19
25,GGAGAACAUGGAGACUAUUTT against Ramp1,inactive: -0.371
26,GGGAAGAAAAUCAAACUCATT against Fabp1,inactive: 0.383

# Quoted from the listing.
# GGAGCGAAUCUUAAAGAACTT against Gspt1 | z-score: inactive: -2.24
# GCCAUGACCGUUCGUGAGUTT against Jmjd2a | z-score: inactive: 0.149

# Additional results follow.

row,Sequence,z-score
1,GCAAAUGACUUCCAACAAUTT against 1500040F11Rik,inactive: 0.798
2,GGAAAGAGUCAUAAUUGAUTT against Adarb2,inactive: 1.66
3,GGUACAGUUAUUGAAGUGATT against 5730427N09Rik,inactive: -2.2
4,GCAUGAUUACCCAUUUCAATT against Tax1bp1,inactive: 0.267
5,CGAAGUGGUUACAGAAUCUTT against BC048546,inactive: -0.173
6,GGUGUAGAUGGAUUUCAUUTT against Kcmf1,inactive: -0.703
7,GGAACUGAACAAGAUUUCUTT against 1700129C05Rik,inactive: -0.721
8,GGAUUCAAGUUCUCACCGATT against Serpina6,inactive: -0.266
9,GGGAGUUACAGCGGUAUGUTT against Krt1-9,inactive: -2.03
10,GUUGAUGGAAACCAUGGAATT against D14Ertd668e,inactive: 0.8
11,GGUAGCACAUUCGGAUAAATT against Vapa,inactive: 0.135
12,GGUUAUCAGAAAUGUGUCCTT against Chrnb3,inactive: 0.139
13,GCUGAUCAACUACUUGAAUTT against Sfrs12,inactive: 1.42
14,CUGAGGUCUCUCAUUACCATT against Olfr69,inactive: -1.79
15,GGACCCAGUUUUCCCUUGATT against Insig2,inactive: 0.69
16,GGUGGUAUCCCUAAAGGUGTT against Pus1,inactive: -1.22
17,GUCUUUGUUUUGUUGCUUGTT against Olfr1232,inactive: -0.0902
18,CCUCGAGUCACCAACAUCGTT against Simp-pending,inactive: 0.524
19,CCUAAAAUCCUAGACCUUUTT against Pank1,inactive: -0.566
20,GCACUAGGCGAGUUGUCAUTT against Rnase4,inactive: 0.987
21,GGCAAAUUAUUAGUACAGUTT against Gabpa,inactive: -0.955
22,CGAAGAUCUUAUCAGUAUATT against Cdh7,inactive: 0.43
23,UUGGAAGUGGCCAUGUAGGTT against LOC434459,inactive: -1.15
24,GGAAGUGGAAUCCUACAAGTT against Celsr2,inactive: -0.254
25,GCCCUUACCGAAGAAUUAATT against 2900060P06Rik,inactive: 0.451
26,CCUACAACUAUAAAAGAUGTT against Sp3,inactive: -0.515

row,Sequence,z-score
1,GCCACUCACAUUAAAUUACTT against Mthfd1,inactive: -0.481
2,GCUAAUAACUUUUCAGUGATT against Olfr381,inactive: 1.01
3,GGACGUGAGACUUCUUCAGTT against Prr3,inactive: 1.06
4,GGCAACUUAGGAGUUAGACTT against 2610528A17Rik,inactive: 0.957
5,CCUUUAAUACACUCUUCAATT against Cyp2a12,inactive: 0.607
6,GGCCAGUGAUGCUGUAGUUTT against Sema6c,inactive: -2.66
7,CCACUUUCAACUUUCCGCATT against Fgd5,inactive: 0.489
8,CCUGCAAUACCUACUACCATT against Prss32,inactive: -0.173
9,GGCAGUAGACACAAACAGATT against Plxdc2,inactive: 0.571
10,GGAUCAGAACUCGUUCCCGTT against 1500011J06Rik,inactive: -0.161
11,GGUGUCAGAGUUAAGACAATT against Myocd,inactive: 0.668
12,GCAGCAGUUAAACAACCUUTT against 4933434L15Rik,inactive: -0.538
13,GCUCUAGCAACUAAGCGCATT against LOC382109,inactive: -0.0899
14,GCUUUGUUUGAAAAUGCGATT against BC002230,inactive: 1.31
15,GGUCAAAGGAAAAAAAUGGTT against Zfp30,inactive: 0.618
16,GCCCACAUUUGUAUUACUUTT against 9530020D24Rik,inactive: -1.7
17,CCUCCUUUAAGGAAAACCCTT against Alb1,inactive: 0.789
18,GGCACUCGACAGAACAACUTT against Scamp3,inactive: -0.981
19,GGACCAGAUAACUGCCAAATT against Kif5c,inactive: -1.26
20,GACAAGACAAGUUUUGGUATT against Elmo1,inactive: -0.497
21,GGUUUUUACAAUCAUGAUGTT against Fert2,inactive: 0.665
22,GGAAAUUAAACAGAAACAGTT against Ube2j2,inactive: -0.428
23,GCCUAUCGUCCAGAUUAUCTT against Senp1,inactive: -0.394
24,GGACAAAUUGUAUGGCGAATT against Nedl2,inactive: 0.434
25,GCUUCGACACUUUAUUUCUTT against Cnp1,inactive: 1.82
